This note sets out measurements from article PMC4260845.

These are yes or no findings as the source states them, for the method shown. Where a sequence is shown, tags or fusion partners need not be part of it.

The target in experiment [1] is Starmaker-like protein (Stm-l) from medaka (Oryzias latipes), recombinant, non-tagged (Oryzias latipes (medaka)) (UniProt C5J3N6). The experiment can be described thus: SEC; Superdex 200 10/300 GL, buffer A (20 mM Tris, 150 mM NaCl, pH 7.5), room temperature, 0.5 ml/min; Stm-l loaded at 0.1, 0.5 or 2.5 mg/mL in 0.2 mL; both purified. Background: Size exclusion chromatography separates by hydrodynamic size, large species first.

For experiment [2] the target is unchanged. Put plainly: AUC; sedimentation velocity, 20°C, 40 000 rpm, buffer A; Stm-l at 0.40, 1.22 or 2.50 mg/mL; c(s) analysis with SEDFIT; both purified.

B1: Starmaker-like protein (Stm-l) from medaka (Oryzias latipes), recombinant, non-tagged (protein, UniProt C5J3N6 1-361)
chain: MGSMKNSDDESKETSKAAAEVKTTEKTAENPDATDEPSEETSEGEELDSADDSQDSTDEPSQETAETKETESADKSEDKSSAAEETDEEASDSADVSEAVSESEETSSSPEVRGSKTNNTEDKISFEEVEDQSDEMSMDKDKKSEESSMRPTDSVKGAEDSASLESDEMFEESDEQSEEEKSTSAPTSEDAGADSEDESDQSSQDLSKEDDSKGQDAVQSQDDGTTSKADLMDDDLGAEDDKDEEKEEAADGDAKDLGVMIEKDEEEKVEVNKEQVDSNEDQPAKENSDEKDEADKEKDASDKKDLSMSEEEPDWEEEMGMDDSLEEEEKANKKTSDEKGSFDETTSDQLDQPDNSTPPADAAM
Consider B1, for which the binding result was “no binding (tested: 0.1, 0.5 and 2.5 mg/mL)” in experiment [1]; “no binding (tested: 0.40, 1.22 and 2.50 mg/mL)” in experiment [2].
